Test results published in the supplement of paper PMC8007513.
This is one part of the list. Many values rest on one well or one pass, so single values are uncertain.

What follows are molecules tested on Saccharomyces cerevisiae BY4743 (assay: growth (OD600) with compound + IPBC relative to untreated control; higher = less growth inhibition). Conditions: compound concentration: 133 uM; IPBC concentration: 0.5 ug/ml; 20 h.
Method: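 NMCCC compounds (133 uM) combined with IPBC (0.5 ug/ml) against Saccharomyces cerevisiae BY4743 in YPD, 96-well plates. Growth was read as OD600 at 20 h and expressed as % of the untreated control. Single pass.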

SMILES | growth
CCC1=CC=C(NC(=O)CN2\C=C/N(C(=O)C2=O)C3=CC(=CC(=C3)C)C)C=C1 + CCCCNC(=O)OCC#CI [3-iodo-2-propynyl butylcarbamate (IPBC)] | 91.1%
CC(C)OCCN1CCc2cc(S(=O)(=O)N(C)C)ccc21 + CCCCNC(=O)OCC#CI [3-iodo-2-propynyl butylcarbamate (IPBC)] | 105%
Clc1snnc1CSc1nccn1-c1ccccc1 + CCCCNC(=O)OCC#CI [3-iodo-2-propynyl butylcarbamate (IPBC)] | 80.6%
CSc1nncc(-c2ccc(Br)cc2)n1 + CCCCNC(=O)OCC#CI [3-iodo-2-propynyl butylcarbamate (IPBC)] | 88.9%
C\C1=C\C(C)(C)N2C(=O)C(=O)C3=CC(=CC1=C23)O + CCCCNC(=O)OCC#CI [3-iodo-2-propynyl butylcarbamate (IPBC)] | 84.4%
CCN(CC)CCS\C1=N\C(=C(\CC)C(=O)N1C2=CC=CC=C2)O + CCCCNC(=O)OCC#CI [3-iodo-2-propynyl butylcarbamate (IPBC)] | 103%
CCN(CC(=O)NC1=CC=C(NC(C)=O)C=C1)C(=O)C/2=N/N(C)C(=O)/C=C2 + CCCCNC(=O)OCC#CI [3-iodo-2-propynyl butylcarbamate (IPBC)] | 109%
COc1nccc(N(C)C)c1NC(=O)c1cnn(-c2ccccc2)n1 + CCCCNC(=O)OCC#CI [3-iodo-2-propynyl butylcarbamate (IPBC)] | 80.3%
CCN(CC)[S](=O)(=O)C1=CC=C(C=C1)C(=O)N\C2=C(/C(C)C)N(C)N(C2=O)C3=CC=CC=C3 + CCCCNC(=O)OCC#CI [3-iodo-2-propynyl butylcarbamate (IPBC)] | 104%
Cc1cc(C(=O)N2CCN(C(=O)c3cccs3)CC2)[nH]n1 + CCCCNC(=O)OCC#CI [3-iodo-2-propynyl butylcarbamate (IPBC)] | 116%
COc1ccc(C2N(c3ccc(Cl)cc3)C(=O)C(C)S2(=O)=O)cc1 (centres undefined) + CCCCNC(=O)OCC#CI [3-iodo-2-propynyl butylcarbamate (IPBC)] | 96.1%
CCCOc1ccc(CNC(=O)Cn2c(=O)oc3ccccc32)cc1 + CCCCNC(=O)OCC#CI [3-iodo-2-propynyl butylcarbamate (IPBC)] | 98.2%
CC(=O)c1c(C)[nH]c(C(=O)N2CCN(Cc3ccc(C#N)cc3)CC2)c1C + CCCCNC(=O)OCC#CI [3-iodo-2-propynyl butylcarbamate (IPBC)] | 88.7%
COc1ccc(CNS(=O)(=O)c2cc3nc(O)c(O)nc3cc2C)cc1 + CCCCNC(=O)OCC#CI [3-iodo-2-propynyl butylcarbamate (IPBC)] | 112%
COc1ccc(-n2ccnc2SCC(=O)NCC2CN(CC(C)C)CCO2)cc1 (centres undefined) + CCCCNC(=O)OCC#CI [3-iodo-2-propynyl butylcarbamate (IPBC)] | 98.6%
Cc1cc(C(=O)OCC(=O)c2ccc[nH]2)c(C)n1Cc1cccs1 + CCCCNC(=O)OCC#CI [3-iodo-2-propynyl butylcarbamate (IPBC)] | 98.4%
FC1=CC=CC(=C1)CCNC(=O)CCC(=O)N\2CC\C(=N2)C3=CC=CC=C3 + CCCCNC(=O)OCC#CI [3-iodo-2-propynyl butylcarbamate (IPBC)] | 107%
N#Cc1ccsc1NC(=O)CCNC1(c2ccc(Br)cc2)CCCC1 + CCCCNC(=O)OCC#CI [3-iodo-2-propynyl butylcarbamate (IPBC)] | 94.7%
CCCNC(=O)CSc1nnc(-c2ccc(NC(C)=O)cc2)n1-c1ccccc1 + CCCCNC(=O)OCC#CI [3-iodo-2-propynyl butylcarbamate (IPBC)] | 80.3%
O=C(CC1=CC=CS1)N(C\2C[S](=O)(=O)\C=C2)C3=CC=CC=C3 (centres undefined) + CCCCNC(=O)OCC#CI [3-iodo-2-propynyl butylcarbamate (IPBC)] | 101%

Nothing new here: entries from further up.
SMILES | growth
C\C1=C\C(C)(C)N2C(=O)C(=O)C3=CC(=CC1=C23)O + CCCCNC(=O)OCC#CI [3-iodo-2-propynyl butylcarbamate (IPBC)] | 84.4%
CCN(CC)CCS\C1=N\C(=C(\CC)C(=O)N1C2=CC=CC=C2)O + CCCCNC(=O)OCC#CI [3-iodo-2-propynyl butylcarbamate (IPBC)] | 103%

Additional records:

SMILES | growth
Cc1ccc(C(=O)Nc2ccc(-c3nccs3)cc2)s1 + CCCCNC(=O)OCC#CI [3-iodo-2-propynyl butylcarbamate (IPBC)] | 91.3%
Cc1ccc(CNc2ccc(-n3nc(C)cc3C)nn2)cc1 + CCCCNC(=O)OCC#CI [3-iodo-2-propynyl butylcarbamate (IPBC)] | 104%
CCC(=O)Nc1nc2ccc(CC(=O)NCCN(C)C3CCCCC3)cc2s1 + CCCCNC(=O)OCC#CI [3-iodo-2-propynyl butylcarbamate (IPBC)] | 89.8%
COC(=O)c1cc(NC(=O)Cc2ccc(NC(=O)OC(C)(C)C)cc2)ccc1Cl + CCCCNC(=O)OCC#CI [3-iodo-2-propynyl butylcarbamate (IPBC)] | 112%
CCC(Sc1nc(O)c2c(n1)CCC2)C(=O)NC1CCCCC1 (centres undefined) + CCCCNC(=O)OCC#CI [3-iodo-2-propynyl butylcarbamate (IPBC)] | 82.5%
CCOc1ccc(CC(=O)Nc2ccc3nc(NC(C)=O)sc3c2)cc1OCC + CCCCNC(=O)OCC#CI [3-iodo-2-propynyl butylcarbamate (IPBC)] | 85%
NC(=O)c1ccc(S(=O)(=O)N2CCN(CCC(=O)N3CCOCC3)CC2)o1 + CCCCNC(=O)OCC#CI [3-iodo-2-propynyl butylcarbamate (IPBC)] | 85%
CCCC(=O)N\C1=C(\C(=O)C2=CC=CC=C2N1CC)C3=CC=CS3 + CCCCNC(=O)OCC#CI [3-iodo-2-propynyl butylcarbamate (IPBC)] | 88.9%
CCOC(=O)c1cn(Cc2ccccc2)nc1-c1ccccc1OC + CCCCNC(=O)OCC#CI [3-iodo-2-propynyl butylcarbamate (IPBC)] | 92.6%
COC(=O)c1ccc(CS(=O)(=O)N2CCCC2c2ccc(OC)c(OC)c2)cc1 (centres undefined) + CCCCNC(=O)OCC#CI [3-iodo-2-propynyl butylcarbamate (IPBC)] | 109%
CCOC(=O)CNC(=O)c1sc2nc(C)cc(C)c2c1NC(=O)Cc1ccccc1 + CCCCNC(=O)OCC#CI [3-iodo-2-propynyl butylcarbamate (IPBC)] | 104%
Cc1nc2ccccc2n1CCNC(=O)c1ccccc1Cl + CCCCNC(=O)OCC#CI [3-iodo-2-propynyl butylcarbamate (IPBC)] | 98.2%
CCN(CC(=O)Nc1sccc1C#N)Cc1ccc2c(c1)OCO2 + CCCCNC(=O)OCC#CI [3-iodo-2-propynyl butylcarbamate (IPBC)] | 94.6%
O=C(Nc1ccc(Cl)c(-c2nc3cnccc3o2)c1)C(F)(F)F + CCCCNC(=O)OCC#CI [3-iodo-2-propynyl butylcarbamate (IPBC)] | 101%
COC(=O)c1cc(COC(=O)C2(c3ccccc3F)CCCC2)oc1C + CCCCNC(=O)OCC#CI [3-iodo-2-propynyl butylcarbamate (IPBC)] | 94.9%
COCCN1\N=C(/C=C\C1=O)C(=O)N(CC2=C(F)C=CC=C2Cl)C3CC3 + CCCCNC(=O)OCC#CI [3-iodo-2-propynyl butylcarbamate (IPBC)] | 89.2%
CCc1ccc(CN2C(=O)CN(S(C)(=O)=O)CC2(C)C(=O)NC2CCCC2)cc1 (centres undefined) + CCCCNC(=O)OCC#CI [3-iodo-2-propynyl butylcarbamate (IPBC)] | 103%
CCOC(=O)N1CCN(C(=O)c2cc(OC)c(OC)cc2-n2cccc2)CC1 + CCCCNC(=O)OCC#CI [3-iodo-2-propynyl butylcarbamate (IPBC)] | 94.9%
CCC1=CC=C(C=C1)C2=N[NH]C(=N2)SC\C3=C\C(=O)\C(=C/O3)O + CCCCNC(=O)OCC#CI [3-iodo-2-propynyl butylcarbamate (IPBC)] | 95.1%
